Patent publication US20170029467 (published 2017)

Key:
[1] = Fmoc solid-phase peptide synthesis; Wang resin; conditions: whole synthesis, run 2
[2] = general procedure: Fmoc solid-phase peptide synthesis; Wang resin; conditions: whole synthesis, run 1

Substance: D-Phe^1-Pro^2-Arg(Pbf)^3-Pro^4-Gly^5-Gly^6-Gly^7-Gly^8-Asn(Trt)^9-Gly^10-Asp(OtBu)^11-Phe^12-Glu(OtBu)^13-Glu(OtBu)^14-Ile^15-Pro^16-Glu(OtBu)^17-Glu(OtBu)^18-Tyr(tBu)^19-Leu^20
- crude HPLC purity [1]: 87%
- crude HPLC purity [2]: 85%
